# Primary screen of a compound library

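Viability assay of Plasmodium falciparum sporozoites; the read-out is not stated. The concentration is filed as 10 mM, unlikely as a test dose, so the dose is not known. The record gives no direction; compounds that gave an IC50 in retests scored well above the rest, so higher reads as lower viability. Strong results were mostly tested again. About 34,000 compounds were tested under these conditions; 0.84% (about 280) showed 50% or more at least once.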

Values are the deposited “Percent Effect”, in %.
How 0% and 100% were set is not recorded. Most values in the screen are low, and negative values occur.
Compounds were drawn at random from those tested, without regard to their results.
Two or more numbers in one place are separate tests of the same structure; such repeats can differ widely.

compound	Percent Effect
[H][C@@]12OCCN(C(=O)COc3ccc(F)cc3)[C@@]1([H])CC[C@H]2OC	-6.171
CCOC(C)C(=O)N1CCCN(Cc2csc(CC)n2)CC1 (stereo unspecified)	2.169
Cc1nn(C)c(C)c1-c1ccc(=O)n(C(C)C(=O)NC(C)(C)C)n1 (stereo unspecified)	8.423
O=C(O)C(F)(F)F.O=C(O)C(F)(F)F.[H][C@]12CCN(Cc3cccs3)[C@@]1([H])CC[C@@H](COc1cccnc1)O2	-6.113
O=C(O)C(F)(F)F.O=C(O)C(F)(F)F.[H][C@]12CCN(c3ncc(C)cn3)[C@@]1([H])CC[C@@H](COCc1ccccn1)O2	5.99
CC(C)Oc1cccc(CC(=O)N(CC(N)=O)C2CCCC2)c1	-7.771
Cn1cc(NC(=O)N2CCC(Cc3ccccc3)CC2)ccc1=O	10.58
CC(C(=O)NCc1ccc(N2CCCCCC2)nc1)n1cncn1 (stereo unspecified)	7.951
Cc1cc(C(F)(F)F)n2nc(C3CCN(S(C)(=O)=O)CC3)cc2n1	-9.274 & -13.96 & -8.495
Cc1cnc(N)c(C(=O)C2CCN(C(=O)c3cnc(C)nc3C)CC2)c1	-1.823
COc1cc(CN2CCC3(CC(Nc4ccncn4)C3)C2)cc(OC)c1 (stereo unspecified)	-3.664
CC(COc1ccc(F)cc1F)NC(=O)NCCN1CCOCC1 (stereo unspecified)	0.1127
CCC(CC)C(=O)n1ccn(S(=O)(=O)c2ccc(C)cc2)c1=O	-1.907
Cc1nc(C)c(C(=O)OCCNc2ncccc2C#N)s1	25.07
COc1cc(C)c(S(=O)(=O)NCc2cccnc2N(C)C)c(C)c1	5.689
CCOCC(O)CN1CCN(C(=O)C(C)(C)CC)CC1 (stereo unspecified)	9.337
Cc1cc(N(C)C)cc(C2CCN(S(=O)(=O)c3cccs3)C2)n1 (stereo unspecified)	-6.345
Cn1cc(-c2ncc3c(c2C(=O)O)CCN(Cc2ccco2)C3)cn1.O=C(O)C(F)(F)F	3.986
CN(Cc1ccncc1)C1COC2(CCN(Cc3ccsc3)CC2)C1.O=C(O)C(F)(F)F.O=C(O)C(F)(F)F.O=C(O)C(F)(F)F (stereo unspecified)	-16.79
COc1ncccc1CNc1cc(N2CCCC2CO)ncn1 (stereo unspecified)	-5.724
O=C(N1CCOCC(O)C1)C1(c2ccc(Cl)cc2)CCC1 (stereo unspecified)	10.09 & 8.879
CCCc1n[nH]c(C2CN(C(=O)c3cccnc3N(C)C)CCO2)n1 (stereo unspecified)	9.634
Cc1nc(C)c(C(C)NCc2c(C(C)C)nn(C)c2N(C)C)s1 (stereo unspecified)	-17.65
COc1ncccc1NC(=O)NC1CCOc2ccccc21 (stereo unspecified)	1.253
COc1ncccc1CN1CCn2c(Cn3cncn3)cnc2C1	3.806
CCc1nnc2n1CCN(C(=O)c1cc3ccccc3[nH]1)C2	0.06506
Cc1cc(C(=O)N2CCCCC2C)ccc1NCC(=O)N1CCOCC1 (stereo unspecified)	11.77
CCCc1nc(NCCCO)c2c(n1)c(C)nn2CC	4.605
CC(CO)NC(=O)Nc1ccc(S(C)(=O)=O)nc1 (stereo unspecified)	2.285

Repeated from the top, 3 entries:

{"compound": "[H][C@@]12OCCN(C(=O)COc3ccc(F)cc3)[C@@]1([H])CC[C@H]2OC", "Percent Effect": -6.171}
{"compound": "CCOC(C)C(=O)N1CCCN(Cc2csc(CC)n2)CC1", "stereo": "stereo unspecified", "Percent Effect": 2.169}
{"compound": "Cc1nn(C)c(C)c1-c1ccc(=O)n(C(C)C(=O)NC(C)(C)C)n1", "stereo": "stereo unspecified", "Percent Effect": 8.423}

The values are deposited in ChEMBL (CHEMBL3988442, “University of Dundee, Small-Polar-MMV Screening Library” (2021)).